# This is one part of the list.
# Experiments:
# Test in all cases: glycan array binding signal (z-score within array); higher = stronger binding
# Settings in all cases: glycan notation: IUPAC condensed, linker removed
# [1] = target: GlcNAc(b1-3)Gal(b1-4)GlcNAc(b1-3)Gal(b1-4)GlcNAc(b1-2)Man(a1-3)[GlcNAc(b1-3)Gal(b1-4)GlcNAc(b1-3)Gal(b1-4)GlcNAc(b1-2)Man(a1-6)]Man(b1-4)GlcNAc(b1-4)[Fuc(a1-6)]GlcNAc
# Method in brief: (§1)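 Negative Z-scores can be read as non-binding. The Z-score is calculated within each array and then averaged across arrays of one protein sequence at different concentrations or buffers and across linkers. Arrays, 3228 in all, were curated from the Consortium for Functional Glycomics database and kept only where the protein sequence was available.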
# [2] = target: GlcNAc(b1-3)Gal(b1-4)GlcNAc(b1-3)Gal(b1-4)GlcNAc(b1-2)[GlcNAc(b1-3)Gal(b1-4)GlcNAc(b1-3)Gal(b1-4)GlcNAc(b1-6)]Man(a1-6)[GlcNAc(b1-3)Gal(b1-4)GlcNAc(b1-3)Gal(b1-4)GlcNAc(b1-2)Man(a1-3)]Man(b1-4)GlcNAc(b1-4)[Fuc(a1-6)]GlcNAc
# Method in brief: as §1
# [3] = target: GlcNAc(b1-3)Gal(b1-4)GlcNAc(b1-3)Gal(b1-4)GlcNAc(b1-3)Gal(b1-4)GlcNAc(b1-2)Man(a1-3)[GlcNAc(b1-3)Gal(b1-4)GlcNAc(b1-3)Gal(b1-4)GlcNAc(b1-3)Gal(b1-4)GlcNAc(b1-2)Man(a1-6)]Man(b1-4)GlcNAc(b1-4)GlcNAc
# Method in brief: as §1
# [4] = target: GlcNAc(b1-3)Gal(b1-4)GlcNAc(b1-3)Gal(b1-4)GlcNAc(b1-3)Gal(b1-4)GlcNAc(b1-2)Man(a1-3)[GlcNAc(b1-3)Gal(b1-4)GlcNAc(b1-3)Gal(b1-4)GlcNAc(b1-3)Gal(b1-4)GlcNAc(b1-2)Man(a1-6)]Man(b1-4)GlcNAc(b1-4)[Fuc(a1-6)]GlcNAc
# Method in brief: as §1
# [5] = target: GlcNAc(b1-3)Gal(b1-4)GlcNAc(b1-3)Gal(b1-4)GlcNAc(b1-3)Gal(b1-4)GlcNAc(b1-2)[GlcNAc(b1-3)Gal(b1-4)GlcNAc(b1-3)Gal(b1-4)GlcNAc(b1-3)Gal(b1-4)GlcNAc(b1-6)]Man(a1-6)[GlcNAc(b1-3)Gal(b1-4)GlcNAc(b1-3)Gal(b1-4)GlcNAc(b1-3)Gal(b1-4)GlcNAc(b1-2)Man(a1-3)]Man(b1-4)GlcNAc(b1-4)[Fuc(a1-6)]GlcNAc
# Method in brief: as §1
# [6] = target: GlcNAc(b1-3)Gal(b1-4)GlcNAc(b1-3)Gal(b1-4)GlcNAc(b1-3)Gal(b1-4)GlcNAc(b1-3)Gal(b1-4)GlcNAc(b1-2)Man(a1-3)[GlcNAc(b1-3)Gal(b1-4)GlcNAc(b1-3)Gal(b1-4)GlcNAc(b1-3)Gal(b1-4)GlcNAc(b1-3)Gal(b1-4)GlcNAc(b1-2)Man(a1-6)]Man(b1-4)GlcNAc(b1-4)GlcNAc
# Method in brief: as §1
# [7] = target: GlcNAc(b1-3)Gal(b1-4)GlcNAc(b1-3)Gal(b1-4)GlcNAc(b1-3)Gal(b1-4)GlcNAc(b1-3)Gal(b1-4)GlcNAc(b1-2)Man(a1-3)[GlcNAc(b1-3)Gal(b1-4)GlcNAc(b1-3)Gal(b1-4)GlcNAc(b1-3)Gal(b1-4)GlcNAc(b1-3)Gal(b1-4)GlcNAc(b1-2)Man(a1-6)]Man(b1-4)GlcNAc(b1-4)[Fuc(a1-6)]GlcNAc
# Method in brief: as §1
# [8] = target: GlcNAc(b1-3)Gal(b1-4)GlcNAc(b1-3)Gal(b1-4)GlcNAc(b1-3)Gal(b1-4)GlcNAc(b1-3)Gal(b1-4)GlcNAc(b1-2)[GlcNAc(b1-3)Gal(b1-4)GlcNAc(b1-3)Gal(b1-4)GlcNAc(b1-3)Gal(b1-4)GlcNAc(b1-3)Gal(b1-4)GlcNAc(b1-6)]Man(a1-6)[GlcNAc(b1-3)Gal(b1-4)GlcNAc(b1-3)Gal(b1-4)GlcNAc(b1-3)Gal(b1-4)GlcNAc(b1-3)Gal(b1-4)GlcNAc(b1-2)Man(a1-3)]Man(b1-4)GlcNAc(b1-4)[Fuc(a1-6)]GlcNAc
# Method in brief: as §1
# [9] = target: GlcNAc(b1-3)Gal(b1-4)GlcNAc(b1-3)Gal(b1-4)GlcNAc(b1-3)GalNAc
# Method in brief: as §1
# [10] = target: GlcNAc(b1-3)Gal(b1-4)GlcNAc(b1-3)GalNAc
# Method in brief: as §1
# [11] = target: GlcNAc(b1-3)Gal(b1-4)GlcNAc(b1-3)[GlcNAc(b1-3)Gal(b1-4)GlcNAc(b1-3)]GalNAc
# Method in brief: as §1
# [12] = target: GlcNAc(b1-3)Gal(b1-4)GlcNAc(b1-6)[Gal(b1-3)]GalNAc
# Method in brief: as §1
# [13] = target: GlcNAc(b1-3)Gal(b1-4)GlcNAc(b1-6)[GlcNAc(b1-3)Gal(b1-3)]GalNAc
# Method in brief: as §1
# [14] = target: GlcNAc(b1-3)Gal(b1-4)GlcNAc(b1-6)[GlcNAc(b1-3)]Gal(b1-4)GlcNAc
# Method in brief: as §1
# [15] = target: GlcNAc(b1-3)GalNAc
# Method in brief: as §1
# [16] = target: GlcNAc(b1-3)Man
# Method in brief: as §1
# [17] = target: GlcNAc(b1-3)[GlcNAc(b1-4)][GlcNAc(b1-6)]GlcNAc
# Method in brief: as §1
# [18] = target: GlcNAc(b1-3)[GlcNAc(b1-6)]Gal(b1-4)GlcNAc
# Method in brief: as §1
# [19] = target: GlcNAc(b1-3)[GlcNAc(b1-6)]GalNAc
# Method in brief: as §1
# [20] = target: GlcNAc(b1-4)Gal(b1-4)GlcNAc
# Method in brief: as §1
# [21] = target: GlcNAc(b1-4)GlcNAc
# Method in brief: as §1
# [22] = target: GlcNAc(b1-4)GlcNAc(b1-4)GlcNAc
# Method in brief: as §1
# [23] = target: GlcNAc(b1-4)GlcNAc(b1-4)GlcNAc(b1-4)GlcNAc(b1-4)GlcNAc
# Method in brief: as §1
binder,measurement,setting,value
"Awp3 (Candida glabrata), B4UN32 (protein) MISFVTLLAILGLLSISWADQTVRSVAGDQRVTDPVIVGDNSILDYYGGSNYDFSNNFEIGRGTLYIGKESYFSSFQSAPTDVPNSFHLLIKNTNNLQNNGQFIIENIKRHANQCSNSSIQVFPINFQNDGEFEIISGGVEGRCCLPTSVIAPQNFLNNGKFYYKVLTDTGSIYSGSCMQNVDIGASTTTTVNNNLWEFTGSINAQINGAVSGAAQINLDGSNMFVNANTFSGQVVNLINGGSFLQTSDPLSNIVVINGLGTSDTGVTSIAVKGKGKSFTYNPSSGIVKLTTVEGKTYAYQIGCGYNTKKFITNNDSGASYESADNFFVLTYSEPYSPQTCQLENSSIFSSNFISTSTSSSSSSSSASSLPSSMSSSLPSSLSSSLSSSLSSSMSSSMSSLFIIPPPYTTTRSSGSSIIDTEIVSFYSTTDSPGHTITGTTTTTLYGPHTHSSVSTPSSSSESSTTSNSSIESSSLPHTSVSSTPESSITPSSNTISSSPTSDFSSVQSSSIMESSSVVASSSVINSSSIVDSSSSSASSLPSSMSSSLSSSMSSSLPSSMSSSLSSSLSSSLSSSMSSSMSSLFIIPPPYTTTRSSGSSIIDTEIVSFYSTTDSPGHTITGTTTTTLYGPHTHSSVSTPSSSSESSTTSNSSIESSSLPHTSVSSTPESSITPSSNTISSSPTSDFSSVQSSSIMESSSVVASSSVINSSSIVDSSSSSASSLPSSMPSSLPSSMSSSLSSSMSSSLSSSLSSSLSSSMSSSMSSLFIIPPPYTTTRSSGSSIIDTEIVSFYSTTDSPGHTITGTTTTTLYGPHTHSSVSTPSSSSESSTTSNSSIESSSLPHTSVSSTPESSITPSSNTISSSPTSDFSSVQSSSIMESSSVVASSSATQSSSVINSSSIVDSSSSSASSLPSSMPSSLPSSLSSSLSSSLSSSMSSSMSSLFIIPPPYTTTRSSGSSIIDTEIVSFYSTTDSPGHTITGTTTTTLYESSIYSSSSSTIQESELSNTSRTTMTSNSSVSISSTSSRSSFSNTKSSTIVISQSASLPDSKTDIILSTSSNIGYSSRSLLSDLGTSISDSDIHHSVLHSTESYSSNESGTNPFTSIASLSNFIPESSSHTSTALGSENSVISSDILTTMSHPVATNSGDKPTTPKRSEQVSTTMTSSGPTPDTSSFDTDGMSAYSRPEFTTNSLEVNKSSTSQLGNNKQTFSNLQLESTRPHSENEVDNNTRLLQSIQQSSTYGTNNVNPLSPTGSISIPLTEDGQGDNNNWNSPATNDLCTQISFNLTATTITVTDRITITDSIHDISSEVITSYIYQTIVDQKTVTQTVDGKSLANKMSSIPKPSSRSLIQPQPPVAIELQEGAASTSRVSLVSLFISIILVLL",glycan array binding signal (z-score),[1],1.2
same,glycan array binding signal (z-score),[2],1.55
same,glycan array binding signal (z-score),[3],1.39
same,glycan array binding signal (z-score),[4],1.73
same,glycan array binding signal (z-score),[5],1.73
same,glycan array binding signal (z-score),[6],-0.245
same,glycan array binding signal (z-score),[7],0.402
same,glycan array binding signal (z-score),[8],1.61
same,glycan array binding signal (z-score),[9],0.914
same,glycan array binding signal (z-score),[10],-0.013
same,glycan array binding signal (z-score),[11],0.092
same,glycan array binding signal (z-score),[12],-0.872
same,glycan array binding signal (z-score),[13],-0.034
same,glycan array binding signal (z-score),[14],0.42
same,glycan array binding signal (z-score),[15],-0.483
same,glycan array binding signal (z-score),[16],-0.126
same,glycan array binding signal (z-score),[17],-3.03
same,glycan array binding signal (z-score),[18],0.333
same,glycan array binding signal (z-score),[19],0.423
same,glycan array binding signal (z-score),[20],0.171
same,glycan array binding signal (z-score),[21],0.723
same,glycan array binding signal (z-score),[22],0.304
same,glycan array binding signal (z-score),[23],0.979

# Reference: the supplement of paper PMC8728848
